Source: patent publication US12427155B2, “Treatment for tau-related diseases” (The Regents of the University of California, priority 2019, dated 2025)

How the values were obtained:
pThr231Tau/tTau [1] = assay: pThr231Tau/tTau in APP-Δcholesterol neurons; type: cell-based, human; conditions: 10 μM, 3 days
Description: FIGS. 4A-4F show regulation of Aβ by CE Is Mediated by a Cholesterol Binding Domain in APP. […] Green indicates amino acid sequence. Red arrow indicates CRISPR/Cas9 cut site. […] Two E693A (line 3D9 and 2B2) and one F691A+E693A line (line D12) were generated, as well as two non-gene-edited, but clonally expanded, WT lines (B10 and B11). FIGS. 4D-4F show measurements made using APP-Δcholesterol neurons with the following genotypes: WT (average from 2 independent lines), E693A (2 independent lines), and F691A+E693A (1 line) (mean±SEM, n R 3 per line). (D) Relative secreted Ab42 levels in conditioned media from purified CD184^−, CD44^−, and CD24^+ neurons (mean±SEM, n≥3 per line).

pThr231Tau/tTau [2] = assay: pThr231Tau/tTau ratio (ELISA) in APP^dp iPSC-derived FAD neurons; type: cell-based, human; conditions: APP^dp1-6 neurons, 5 μM, 5 days
APP^dp1-6 neurons = assay: cell viability of APP^dp1-6 iPSC-derived neurons

Molecule | pT231Tau/tTau ratio (pThr231Tau/tTau [1]) | pThr231Tau/tTau, confirmed non-toxic screening hit (pThr231Tau/tTau [2]) | rescue of the effect of atorvastatin on cell viability (APP^dp1-6 neurons)
CC(C)c1c(C(=O)Nc2ccccc2)c(-c2ccccc2)c(-c2ccc(F)cc2)n1CC[C@@H](O)C[C@@H](O)CC(=O)O [atorvastatin] | still decreased | hit-list | –
mevalonate [MVA] | – | – | without rescuing
